Values from PubChem BioAssay AID1224830 (NIAID, 2016)
Shown is an unselected part of about 18,000 reagents tested. About 2,900 of all reagents (16%) were called active. 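Calls are made per well; low scores hint the gene aids the LPS response, high scores that it dampens it.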 Repeated entries: four replicate wells of each siRNA pool.

Assay: 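Regulators of TLR4 signalling towards TNF-alpha in macrophage-like cells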 (primary screen)
System: human THP-1 monocytic leukaemia cells, TNF dual-luciferase reporter clone, PMA-differentiated to macrophage-like cells
Reagents: siRNA pool against human genes, 50 nM
Time to read-out: LPS for 4 h, given about 3 days after siRNA transfection
Challenge: bacterial LPS (TLR4 ligand), 10 ng/ml
Measurement: 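Ratio of firefly to renilla light, scaled to the plate median and expressed as a robust z-score per replicate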
Direction: TNF reporter robust z-score: higher = stronger TNF reporter response to LPS
Active means: 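Each well counts as active if its z-score is over 2.8 or under -1.5; controls are left without a call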

| gene | TNF reporter robust z-score | Outcome |
| --- | --- | --- |
| SORBS3 (sorbin and SH3 domain containing 3) | -1.06 | inactive |
| SORBS3 (sorbin and SH3 domain containing 3) | -0.37 | inactive |
| SORBS3 (sorbin and SH3 domain containing 3) | -1.02 | inactive |
| SORBS3 (sorbin and SH3 domain containing 3) | -0.28 | inactive |
| RAB39B (RAB39B, member RAS oncogene family) | 0.82 | inactive |
| RAB39B (RAB39B, member RAS oncogene family) | 0.91 | inactive |
| RAB39B (RAB39B, member RAS oncogene family) | 2.27 | inactive |
| RAB39B (RAB39B, member RAS oncogene family) | 1.19 | inactive |
| KIF21B (kinesin family member 21B) | -1.14 | inactive |
| KIF21B (kinesin family member 21B) | -1.17 | inactive |
| KIF21B (kinesin family member 21B) | -1.38 | inactive |
| KIF21B (kinesin family member 21B) | -0.77 | inactive |
| SLC35F4 | 0.42 | inactive |
| SLC35F4 | 1.66 | inactive |
| SLC35F4 | 2.85 | active |
| SLC35F4 | 0.26 | inactive |
| TIMP4 (TIMP metallopeptidase inhibitor 4) | 1.32 | inactive |
| TIMP4 (TIMP metallopeptidase inhibitor 4) | 1.2 | inactive |
| TIMP4 (TIMP metallopeptidase inhibitor 4) | -0.15 | inactive |
| TIMP4 (TIMP metallopeptidase inhibitor 4) | 1.21 | inactive |
| KIR3DP1 | 1.44 | inactive |
| KIR3DP1 | 2.36 | inactive |
| KIR3DP1 | 1.67 | inactive |
| KIR3DP1 | -0.08 | inactive |
| ATAD1 (ATPase family AAA domain containing 1) | -1.49 | inactive |
| ATAD1 (ATPase family AAA domain containing 1) | -1.23 | inactive |
| ATAD1 (ATPase family AAA domain containing 1) | -1.43 | inactive |
| ATAD1 (ATPase family AAA domain containing 1) | -0.01 | inactive |
| HDAC5 (histone deacetylase 5) | 0 | inactive |
| HDAC5 (histone deacetylase 5) | 0.38 | inactive |
| HDAC5 (histone deacetylase 5) | -0.11 | inactive |
| HDAC5 (histone deacetylase 5) | 0.55 | inactive |
| TTBK2 (tau tubulin kinase 2) | -0.46 | inactive |
| TTBK2 (tau tubulin kinase 2) | -1.35 | inactive |
| TTBK2 (tau tubulin kinase 2) | -0.66 | inactive |
| TTBK2 (tau tubulin kinase 2) | -0.81 | inactive |
| OR52A5 (olfactory receptor family 52 subfamily A member 5) | -1.58 | active |
| OR52A5 (olfactory receptor family 52 subfamily A member 5) | -1.95 | active |
| OR52A5 (olfactory receptor family 52 subfamily A member 5) | -1.49 | inactive |
| OR52A5 (olfactory receptor family 52 subfamily A member 5) | -1.97 | active |
| CDC25B (cell division cycle 25B) | -1.03 | inactive |
| CDC25B (cell division cycle 25B) | -1.01 | inactive |
| CDC25B (cell division cycle 25B) | 0.15 | inactive |
| CDC25B (cell division cycle 25B) | -1.02 | inactive |
| EIF5A2 (eukaryotic translation initiation factor 5A2) | 0.81 | inactive |
| EIF5A2 (eukaryotic translation initiation factor 5A2) | 1.65 | inactive |
| EIF5A2 (eukaryotic translation initiation factor 5A2) | -0.39 | inactive |
| EIF5A2 (eukaryotic translation initiation factor 5A2) | -0.82 | inactive |
| POFUT3 (protein O-fucosyltransferase 3) | -0.48 | inactive |
| POFUT3 (protein O-fucosyltransferase 3) | -0.73 | inactive |
| POFUT3 (protein O-fucosyltransferase 3) | -0.34 | inactive |
| VIPAS39 | -0.51 | inactive |
| VIPAS39 | -0.24 | inactive |
| VIPAS39 | -0.66 | inactive |
| VIPAS39 | 1.19 | inactive |
| CALHM5 (calcium homeostasis modulator family member 5) | 0.76 | inactive |
| CALHM5 (calcium homeostasis modulator family member 5) | 0.55 | inactive |
| CALHM5 (calcium homeostasis modulator family member 5) | 0.92 | inactive |
| CALHM5 (calcium homeostasis modulator family member 5) | 2.02 | inactive |
| EOLA1 (endothelium and lymphocyte associated ASCH domain 1) | -0.62 | inactive |
| EOLA1 (endothelium and lymphocyte associated ASCH domain 1) | 0.02 | inactive |
| EOLA1 (endothelium and lymphocyte associated ASCH domain 1) | -0.2 | inactive |
| EOLA1 (endothelium and lymphocyte associated ASCH domain 1) | -0.1 | inactive |
| ZFYVE16 (zinc finger FYVE-type containing 16) | -0.51 | inactive |
| ZFYVE16 (zinc finger FYVE-type containing 16) | 0.1 | inactive |
| ZFYVE16 (zinc finger FYVE-type containing 16) | 0.21 | inactive |
| ZFYVE16 (zinc finger FYVE-type containing 16) | 0.17 | inactive |
| PACSIN3 (protein kinase C and casein kinase substrate in neurons 3) | -1.13 | inactive |
| PACSIN3 (protein kinase C and casein kinase substrate in neurons 3) | -0.54 | inactive |
| PACSIN3 (protein kinase C and casein kinase substrate in neurons 3) | -0.58 | inactive |
| PACSIN3 (protein kinase C and casein kinase substrate in neurons 3) | -0.45 | inactive |
| NUMBL (NUMB like endocytic adaptor protein) | -0.66 | inactive |
| NUMBL (NUMB like endocytic adaptor protein) | -0.99 | inactive |
| NUMBL (NUMB like endocytic adaptor protein) | -0.38 | inactive |
| NUMBL (NUMB like endocytic adaptor protein) | -1.53 | active |
| IL26 (interleukin 26) | -0.36 | inactive |
| IL26 (interleukin 26) | -0.64 | inactive |
| IL26 (interleukin 26) | -0.52 | inactive |
| IL26 (interleukin 26) | 0.22 | inactive |
| KCNK1 (potassium two pore domain channel subfamily K member 1) | -0.55 | inactive |
| KCNK1 (potassium two pore domain channel subfamily K member 1) | 0.4 | inactive |
| KCNK1 (potassium two pore domain channel subfamily K member 1) | -0.9 | inactive |
| KCNK1 (potassium two pore domain channel subfamily K member 1) | -0.19 | inactive |
| SGK3 (serum/glucocorticoid regulated kinase family member 3) | -0.83 | inactive |
| SGK3 (serum/glucocorticoid regulated kinase family member 3) | 0.68 | inactive |
| SGK3 (serum/glucocorticoid regulated kinase family member 3) | -0.15 | inactive |
| SGK3 (serum/glucocorticoid regulated kinase family member 3) | 0.29 | inactive |
| MEAF6 (MYST/Esa1 associated factor 6) | 0.2 | inactive |
| MEAF6 (MYST/Esa1 associated factor 6) | 1.22 | inactive |
| MEAF6 (MYST/Esa1 associated factor 6) | 1.76 | inactive |
| MEAF6 (MYST/Esa1 associated factor 6) | -0.19 | inactive |
| TUT1 (terminal uridylyl transferase 1, U6 snRNA-specific) | -0.58 | inactive |
| TUT1 (terminal uridylyl transferase 1, U6 snRNA-specific) | 0.55 | inactive |
| TUT1 (terminal uridylyl transferase 1, U6 snRNA-specific) | 0.15 | inactive |
| TUT1 (terminal uridylyl transferase 1, U6 snRNA-specific) | 1 | inactive |
| SIM1 (SIM bHLH transcription factor 1) | -1.66 | active |
| SIM1 (SIM bHLH transcription factor 1) | -1.01 | inactive |
| SIM1 (SIM bHLH transcription factor 1) | -1.31 | inactive |
| SIM1 (SIM bHLH transcription factor 1) | -0.81 | inactive |
| NPTX1 (neuronal pentraxin 1) | -0.51 | inactive |
| NPTX1 (neuronal pentraxin 1) | 0.82 | inactive |
| NPTX1 (neuronal pentraxin 1) | 0.12 | inactive |
| NPTX1 (neuronal pentraxin 1) | 0.43 | inactive |
| CD2AP (CD2 associated protein) | 0.67 | inactive |
| CD2AP (CD2 associated protein) | -0.44 | inactive |
| CD2AP (CD2 associated protein) | -0.28 | inactive |
| CD2AP (CD2 associated protein) | 0.2 | inactive |
| CDCA2 (cell division cycle associated 2) | 0 | inactive |
| CDCA2 (cell division cycle associated 2) | -0.27 | inactive |
| CDCA2 (cell division cycle associated 2) | -1.26 | inactive |
| CDCA2 (cell division cycle associated 2) | -0.62 | inactive |
| DCAKD (dephospho-CoA kinase domain containing) | -0.71 | inactive |
| DCAKD (dephospho-CoA kinase domain containing) | -0.36 | inactive |
| DCAKD (dephospho-CoA kinase domain containing) | -1.1 | inactive |
| DCAKD (dephospho-CoA kinase domain containing) | -0.98 | inactive |
| SYT10 (synaptotagmin 10) | 1.08 | inactive |
| SYT10 (synaptotagmin 10) | 1.05 | inactive |
| SYT10 (synaptotagmin 10) | 1.63 | inactive |
| SYT10 (synaptotagmin 10) | 0.86 | inactive |
| MMP13 (matrix metallopeptidase 13) | 1.19 | inactive |
| MMP13 (matrix metallopeptidase 13) | 0.48 | inactive |
| MMP13 (matrix metallopeptidase 13) | 2.31 | inactive |
| MMP13 (matrix metallopeptidase 13) | 1 | inactive |
| RRAGA (Ras related GTP binding A) | -1.29 | inactive |
| RRAGA (Ras related GTP binding A) | -0.87 | inactive |
| RRAGA (Ras related GTP binding A) | -1.38 | inactive |
| RRAGA (Ras related GTP binding A) | -0.72 | inactive |
| RAB11FIP5 (RAB11 family interacting protein 5) | -0.58 | inactive |
| RAB11FIP5 (RAB11 family interacting protein 5) | -0.36 | inactive |
| RAB11FIP5 (RAB11 family interacting protein 5) | -1.04 | inactive |
| RAB11FIP5 (RAB11 family interacting protein 5) | -0.75 | inactive |
| CDK8 (cyclin dependent kinase 8) | -1.53 | active |
| CDK8 (cyclin dependent kinase 8) | 0.9 | inactive |
| CDK8 (cyclin dependent kinase 8) | 0.05 | inactive |
| CDK8 (cyclin dependent kinase 8) | -0.7 | inactive |
| CABCOCO1 (ciliary associated calcium binding coiled-coil 1) | 0.9 | inactive |
| CABCOCO1 (ciliary associated calcium binding coiled-coil 1) | 0.72 | inactive |
| CABCOCO1 (ciliary associated calcium binding coiled-coil 1) | 0.58 | inactive |
| SLC25A51 | -0.32 | inactive |
| SLC25A51 | -0.63 | inactive |
| SLC25A51 | 0.34 | inactive |
| SLC25A51 | -0.04 | inactive |

Hits (from the list above):
| gene | TNF reporter robust z-score | Outcome |
| --- | --- | --- |
| SLC35F4 | 2.85 | active |
| OR52A5 (olfactory receptor family 52 subfamily A member 5) | -1.58 | active |
| OR52A5 (olfactory receptor family 52 subfamily A member 5) | -1.95 | active |
| OR52A5 (olfactory receptor family 52 subfamily A member 5) | -1.97 | active |
| NUMBL (NUMB like endocytic adaptor protein) | -1.53 | active |
| SIM1 (SIM bHLH transcription factor 1) | -1.66 | active |
| CDK8 (cyclin dependent kinase 8) | -1.53 | active |
